These are yes or no findings as the source states them, for the method shown. Some binding calls cover weakened binding; strength is not graded here.
How the values were obtained:
[1] = target: dimeric GPVI (GPVI extracellular domain fused by IgG-Fc) (UniProt Q9HCN6); assay: SEC; gel filtration of GPVI monomer and of GPVI dimer alone (Figure VIII in the Data Supplement); both purified
[2] = target: fibrin from plasma purified (IF-1) fibrinogen (UniProt P02671); assay: ELISA; plates coated with 10 nM fibrinogen, collagen fibrils or CRP-XL (fibrin made on the plate with 0.1 U/mL thrombin); GPVI constructs in solution at 100 nM or 0-400 nM, 1 h; detected by anti-human IgG-Fc HRP (dimer) or anti-6-His HRP (monomer); normalised to BSA; both purified
[3] = target: dimeric GPVI (GPVI extracellular domain fused by IgG-Fc) (UniProt Q9HCN6); assay: SPR; biotinylated monomeric (140 RU) or dimeric (600 RU) GPVI on SA chip; monomeric GPVI over monomer and dimeric GPVI over dimer, up to 20 μM; 25 °C; both purified
[4] = target: monomeric GPVI (His-tagged GPVI extracellular domain) (UniProt Q9HCN6); assay: SEC; gel filtration of GPVI monomer and of GPVI dimer alone (Figure VIII in the Data Supplement); both purified
[5] = target: monomeric GPVI (His-tagged GPVI extracellular domain) (UniProt Q9HCN6); assay: SPR; biotinylated monomeric (140 RU) or dimeric (600 RU) GPVI on SA chip; monomeric GPVI over monomer and dimeric GPVI over dimer, up to 20 μM; 25 °C; both purified

Amino acid sequences for entries named in this document (tags omitted). A change or cut given only in a name is not applied to a line headed by its entry. Residues count along the entry.
UniProt Q9HCN6, residues 21-267: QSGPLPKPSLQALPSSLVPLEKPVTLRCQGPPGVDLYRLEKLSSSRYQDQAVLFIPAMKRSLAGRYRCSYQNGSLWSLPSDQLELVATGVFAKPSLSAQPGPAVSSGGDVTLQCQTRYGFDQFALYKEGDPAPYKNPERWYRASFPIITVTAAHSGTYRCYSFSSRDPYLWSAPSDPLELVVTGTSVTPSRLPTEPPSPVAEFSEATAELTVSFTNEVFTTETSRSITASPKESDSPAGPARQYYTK
UniProt P02671: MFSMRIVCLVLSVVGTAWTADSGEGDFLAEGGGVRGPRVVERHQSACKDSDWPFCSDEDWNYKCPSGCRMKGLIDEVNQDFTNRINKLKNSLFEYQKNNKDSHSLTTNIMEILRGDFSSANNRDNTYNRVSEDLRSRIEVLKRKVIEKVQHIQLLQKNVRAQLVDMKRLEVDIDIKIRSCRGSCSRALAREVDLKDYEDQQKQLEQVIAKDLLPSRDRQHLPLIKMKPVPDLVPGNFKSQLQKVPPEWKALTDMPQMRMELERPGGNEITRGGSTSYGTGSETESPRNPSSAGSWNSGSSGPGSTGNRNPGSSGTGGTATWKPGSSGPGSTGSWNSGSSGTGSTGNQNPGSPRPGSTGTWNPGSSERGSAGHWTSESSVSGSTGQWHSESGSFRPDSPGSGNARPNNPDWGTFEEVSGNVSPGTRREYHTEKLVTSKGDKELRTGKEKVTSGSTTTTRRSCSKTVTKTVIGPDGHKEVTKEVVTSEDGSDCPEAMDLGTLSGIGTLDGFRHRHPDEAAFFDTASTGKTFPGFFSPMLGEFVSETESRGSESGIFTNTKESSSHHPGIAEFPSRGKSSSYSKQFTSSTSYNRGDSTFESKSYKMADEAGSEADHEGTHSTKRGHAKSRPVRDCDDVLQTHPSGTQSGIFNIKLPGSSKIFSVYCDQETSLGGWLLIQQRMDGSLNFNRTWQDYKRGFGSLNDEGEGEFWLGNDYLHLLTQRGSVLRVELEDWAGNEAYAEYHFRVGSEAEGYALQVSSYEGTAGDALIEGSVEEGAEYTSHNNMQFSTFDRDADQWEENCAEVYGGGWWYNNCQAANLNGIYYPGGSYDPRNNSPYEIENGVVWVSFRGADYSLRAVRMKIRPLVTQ

binding [1] | binding [2] | binding [3] | binding [4] | binding [5] | Substance
no binding | binds | no binding (tested: up to 20 μM) | – | – | dimeric GPVI (GPVI extracellular domain fused by IgG-Fc) (from UniProt Q9HCN6 21-267) (Fc fusion)
– | binds | – | no binding | no binding (tested: up to 20 μM) | monomeric GPVI (His-tagged GPVI extracellular domain) (from UniProt Q9HCN6 21-267) (receptor)

Source: publication PMC7901536 (Arteriosclerosis, thrombosis, and vascular biology, 2021)
